Data from PubChem BioAssay AID1479148 (National Center for Advancing Translational Sciences (NCATS), 2020).
This list was built around the results that the source calls inconclusive (neither active nor inactive); the mix of calls is not that of the screen. Where the call is inconclusive, the potency comes from a doubtful curve fit. Calls of active or inactive are those of the source. Calls come from the whole dose curve.

Assay: Confirmatory qHTS for inhibitors of SARS-S pseudo-typed particle cell entry
Settings: SARS-S pseudotyped particle cell entry, reporter luminescence; series mostly up to 57.1 µM; activity change, negative = inhibition: at the top concentration

SMILES | Potency | activity change, negative = inhibition
Cc1nnc2n1-c1sc(CCc3ccc(CC(C)C)cc3)cc1C(c1ccccc1Cl)=NC2C (centres undefined) | inconclusive: 0.0192 µM [inhibitor, full curve, poor fit] | 
COc1cc2nccc(Oc3ccc(NC(=O)NC4CC4)c(Cl)c3)c2cc1C(N)=O | inconclusive: 5.41 µM [inhibitor, full curve, poor fit] | 
CCCCCCCCCCCCCC[n+]1ccc(C)cc1 | active: 3.83 µM | 
CCc1c2c(nc3ccc(OC(=O)N4CCC(N5CCCCC5)CC4)cc13)-c1cc3c(c(=O)n1C2)COC(=O)[C@]3(O)CC |  | inactive: -64%
